# The campaign covered roughly 400,000 compounds. About 13,000 (3.2%) were called active. This list was built around the results that the source calls inconclusive (neither active nor inactive); the mix of calls is not that of the screen. The call rests on the fitted dose curve; in most records, active means well fitted cell-killing curve with a large enough effect; inconclusive means small, poorly fitted or top-dose-only effect, or effect the other way; inactive means flat fitted curve, though single readings scatter. A potency beside an inconclusive call is a rough fit, not a confirmed value.
# Assay: qHTS assay for MDR1-selective chemotherapeutics: Primary screen using the drug-selected MDR subline cells KB-V1; further: nearly all actives have a fitted effect of over 60% in size
# Conditions: KB-V1 MDR cells viability, CellTiter-Glo, 72 h; activity change, negative = cytotoxicity: at 46.1 µM (top of the series)
# Outline: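 Potencies derive from concentration-effect curves fitted to normalized luminescence (CellTiter-Glo) of KB-V1 cells treated for 72 h at 37 degrees C in phenol-red-free DMEM containing 10% FBS.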
# On the % scale 0 is the no-effect control and ±100 the full control effect; potency means the concentration at half of the fitted maximal effect.
SMILES,Potency,"activity change, negative = cytotoxicity"
Cn1c(=O)c2[nH]c(COc3ccccc3)nc2n(C)c1=O,inactive,
CCOC(=O)c1sc(Nc2nc(C)cc(C)n2)nc1C,active: 9.2 µM,
CCOC(=O)c1[nH]c(C)c(C(=O)N2CCN(C(=O)OCC)CC2)c1CC,"inconclusive: 23.1 µM [cytotoxic, partial curve]",
CC1CN(c2ccc([N+](=O)[O-])cc2F)CCN1C(=O)c1ccco1 (configuration not stated),"inconclusive: 29.1 µM [cytotoxic, single point]",
CN(C(=O)c1ccccc1OCc1ccc(Cl)cc1)c1ccccc1,inactive,
COc1cccc(C(=O)NCC(=O)NCc2cc(=O)n(C)c(=O)n2C)c1,inactive,
CC1CCCN(C(=O)CN2CCC(c3nc4ccc(Cl)cc4[nH]3)CC2)C1 (configuration not stated),"inconclusive: 18.4 µM [cytotoxic, single point]",
COC(=O)c1ccc(C2C(C(=O)Nc3ccccc3C)=C(C)Nc3ncnn32)cc1 (configuration not stated),"inconclusive: 8.2 µM [rising, partial curve]",
Cc1cc(Cl)ccc1NC(=S)NCc1ccc(Cl)cc1,inactive,
CCOC(=O)c1noc2ncnc(N(CCC(=O)OC)c3ccccc3)c12,inactive,
C=CCNc1nc(C(=O)OCC(=O)c2ccc(Cl)cc2)cs1,inactive,
CCOC(=O)c1noc2ncnc(Nc3ccc(C)c(F)c3)c12,inactive,
Cc1ccc2c(c1)sc1nc(=O)n(-c3ccc(Cl)cc3)c(=O)n12,inactive,
O=P(Cc1ccccc1)(c1ccccc1)c1ccccc1,"inconclusive: 18.4 µM [cytotoxic, single point]",
COc1ccc(OC)c(C2CC(=O)c3c([nH]c(C(=O)OC4CCC(C)CC4)c3C)C2)c1 (configuration not stated),"inconclusive: 18.4 µM [cytotoxic, single point]",
C/C(=N\NC(=O)c1cc2ccccc2cc1O)c1cc2ccccc2o1,"inconclusive: 20.6 µM [cytotoxic, partial curve]",
COc1cc(NC(=O)c2cc(-c3ccc4c(c3)OCO4)on2)cc(OC)c1OC,"inconclusive: 5.8 µM [cytotoxic, full curve]",
O=C(CSc1ccccn1)Nc1ccc(Cl)c([N+](=O)[O-])c1,inactive,
COc1ccc(-c2cc(C)no2)cc1S(=O)(=O)NCc1ccc(OC(C)C)cc1,"inconclusive: 1.46 µM [cytotoxic, full curve, poor fit]",
Cc1ccc2c(c1)nnn2C1CCN(S(=O)(=O)c2ccc(C(=O)N(C)C3CCCCC3)cc2)CC1,"inconclusive: 18.4 µM [cytotoxic, partial curve, poor fit]",
Cc1ccc(CNC(=O)c2ccc(CS(=O)Cc3ccccc3Cl)o2)cc1 (configuration not stated),"inconclusive: 18.4 µM [cytotoxic, single point]",
CC1CCN(c2ccc([N+](=O)[O-])cc2C(N)=O)CC1,inactive,
CCc1ccc(NC(=O)C2CCN(S(=O)(=O)c3c(C)noc3/C=C/N(C)C)CC2)cc1,"inconclusive: 5.17 µM [rising, full curve]",
COCC(=O)N1CCC(Oc2ccc(C(=O)NC3Cc4ccccc4C3)cc2)CC1,"inconclusive: 23.1 µM [cytotoxic, single point]",

SMILES,Potency,"activity change, negative = cytotoxicity"
Cc1cccc(Nc2nnc(-n3nc(C)cc3C)c3ccccc23)c1,inactive,
CC(C)=CCC/C(C)=C/C=N/NC(=O)c1cccc([N+](=O)[O-])c1,,inconclusive: 34.7%
COc1ccc(N2CCN(CCCNC(=O)C3COc4ccc(OC)cc4C3)CC2)cc1 (configuration not stated),inactive,
CCN(Cc1ccccc1)Cc1cc(OC)cc(OC)c1,"inconclusive: 18.4 µM [cytotoxic, partial curve]",
CCOc1ccccc1C=NNC(=O)C(=O)NN=Cc1ccccc1OCC,inactive,
CC(CN1CCN(CC(C)C(=O)c2ccccc2)CC1)C(=O)c1ccccc1 (configuration not stated),inactive,
CC(Cc1cccs1)NC(=O)Nc1ccc(Cl)c(Cl)c1 (configuration not stated),"inconclusive: 18.4 µM [cytotoxic, single point]",
Cc1cccc(NC(=O)CCSc2nnc(Cc3ccccc3)o2)c1,active: 14.6 µM,
CCC(C)NC(=O)CCC(=O)Nc1ccc2nc(N3CCOCC3)cc(C)c2c1 (configuration not stated),inactive,
O=C(c1cccc(OC2CCN(C3CCCC3)CC2)c1)N1CCCCCCC1,"inconclusive: 6.51 µM [cytotoxic, partial curve]",
CC1CCCC(=NNC(=O)C2COc3ccccc3O2)C1 (configuration not stated),"inconclusive: 29.1 µM [rising, single point]",
COc1ccc(N2CCN(C(c3ccccc3)c3nnnn3Cc3ccc(F)cc3)CC2)cc1 (configuration not stated),"inconclusive: 9.2 µM [cytotoxic, partial curve]",
CCc1cc(C(c2ccc(OC)c(OC)c2)N2CCOCC2)c(NC(=O)c2ccccc2)s1 (configuration not stated),,inconclusive: -25.9%
CCOc1ccc(C(C)=O)cc1CSc1nc(C)cc(C)n1,"inconclusive: 0.0065 µM [cytotoxic, full curve, poor fit]",
Nc1ccc(C(=O)OCC(=O)Nc2ccc([N+](=O)[O-])cc2C(F)(F)F)cc1,"inconclusive: 29.1 µM [cytotoxic, single point]",
Cn1c(Cn2c(=O)sc3ccccc32)nnc1SCC(N)=O,,inconclusive: 38.6%
COc1ccc(N2CCN(C(=O)CN=C3NS(=O)(=O)C(c4ccc(C)cc4)=C3C)CC2)cc1,active: 3.66 µM,
COCCn1c(-c2ccccc2)c(C)n2c3c(=O)n(C)c(=O)n(C)c3nc12,"inconclusive: 5.17 µM [cytotoxic, partial curve]",
CCCN1CC=C2C(C#N)=C(N)C(C#N)(C#N)C(c3cccc(OC)c3OC)C2C1 (configuration not stated),"inconclusive: 3.66 µM [cytotoxic, full curve]",
Cc1cc(-c2c(C(=O)N3CCOCC3)c(C)nn2-c2ccccc2)no1,inactive,
CSc1ccc(/C=C(\C#N)C(=O)NC2CCCCC2)cc1,inactive,
COc1ccc(NC(=O)c2ccc(F)c(F)c2)c2ccccc12,inactive,
CCCCN(C)CC(O)Cn1cc(/C=C/C(=O)c2cccs2)c2ccccc21 (configuration not stated),"inconclusive: 20.6 µM [cytotoxic, single point]",
CSc1cccc(NC(=S)NCCCN2CCN(c3ccc(F)cc3)CC2)c1,inactive,

# 5 entries from above, reformatted:
SMILES | Potency | activity change, negative = cytotoxicity
CC(C)=CCC/C(C)=C/C=N/NC(=O)c1cccc([N+](=O)[O-])c1 |  | inconclusive: 34.7%
CCN(Cc1ccccc1)Cc1cc(OC)cc(OC)c1 | inconclusive: 18.4 µM [cytotoxic, partial curve] | 
CCC(C)NC(=O)CCC(=O)Nc1ccc2nc(N3CCOCC3)cc(C)c2c1 (configuration not stated) | inactive | 
CCc1cc(C(c2ccc(OC)c(OC)c2)N2CCOCC2)c(NC(=O)c2ccccc2)s1 (configuration not stated) |  | inconclusive: -25.9%
CCCN1CC=C2C(C#N)=C(N)C(C#N)(C#N)C(c3cccc(OC)c3OC)C2C1 (configuration not stated) | inconclusive: 3.66 µM [cytotoxic, full curve] | 

# Next compounds:

SMILES,Potency,"activity change, negative = cytotoxicity"
CCOC(=O)C[C@H]1c2ccc(C(F)(F)F)cc2S(=O)(=O)N1C1CCCC1,"inconclusive: 6.51 µM [cytotoxic, full curve]",
COc1cccc(NC(=S)N2CCN(C/C=C/c3ccccc3)CC2)c1,"inconclusive: 23.1 µM [cytotoxic, single point]",
O=C(Nc1ccccc1)c1cccc(S(=O)(=O)Nc2ccccn2)c1,"inconclusive: 20.6 µM [cytotoxic, partial curve, poor fit]",
Cc1cccc(-c2nc3c(c(SCC(=O)N(C)C)n2)CCCC3)c1,"inconclusive: 7.31 µM [cytotoxic, partial curve, poor fit]",
O=C(c1ccncc1)c1ccc(N2CCN(C3CC(=O)N(Cc4ccccc4)C3=O)CC2)cc1 (configuration not stated),active: 16.4 µM,
CCNC(=O)N1CCN(CCCC(c2ccc(F)cc2)c2ccc(F)cc2)CC1,"inconclusive: 14.6 µM [cytotoxic, partial curve]",
Cc1ccc(C)c(N2CCN(C(=O)Cn3cnc4sc(C)c(S(=O)(=O)N5CCN(c6ncccn6)CC5)c4c3=O)CC2)c1,"inconclusive: 29.1 µM [cytotoxic, single point]",
O=C(Nc1ccc2c(c1)OCO2)c1cc(-c2cccc(Cl)c2)on1,"inconclusive: 29.1 µM [rising, single point]",
NC(=O)c1ccc(-c2ccc(Br)cc2)o1,active: 8.2 µM,
CCOC(=O)CN1C(=O)C(O)=C(C(C)=O)C1c1ccc([N+](=O)[O-])cc1 (configuration not stated),"inconclusive: 29.1 µM [rising, single point]",
O=C1c2ccccc2C(=O)N1CCCc1c[nH]c2ccc(Cl)cc12,active: 20.6 µM,
CC(C)c1ccc(C(=O)NN2CCOCC2)cc1,,inconclusive: 37.3%
COc1cccc(NC(=S)N(CCCN2CCCC2)Cc2cccn2Cc2ccc(Cl)cc2)c1,"inconclusive: 1.46 µM [cytotoxic, full curve]",
COc1ccc(/C=N/NC(=O)CN2CCCc3ccccc32)c(OC)c1,"inconclusive: 23.1 µM [rising, single point]",
CCS(=O)(=O)N1CCC(C(=O)NCCCOC)CC1,inactive,
CN(C)C(CNc1ncnc2sc3c(c12)CCCC3)c1ccco1 (configuration not stated),"inconclusive: 2.31 µM [cytotoxic, full curve, poor fit]",
O=C(N/C(=C\c1ccccc1)C(=O)N1CCCCCC1)c1ccccc1,"inconclusive: 10.3 µM [cytotoxic, partial curve]",
CC1=C(C(=O)OC2CCCC2)C(c2ccc(C)o2)C2=C(CC(c3cccs3)CC2=O)N1 (configuration not stated),active: 20.6 µM,
CCN(C(=O)N1CCOCC1)c1ccccc1,"inconclusive: 18.4 µM [rising, single point]",
O=C(O)C1CC=CCC1C(=O)c1ccccc1 (configuration not stated),"inconclusive: 16.4 µM [rising, single point]",
COCOCCn1cc(CN2CCS(=O)(=O)N(Cc3ccc(-c4ccc(Cl)c(Cl)c4)cc3)C(C)C2=O)nn1 (configuration not stated),"inconclusive: 29.1 µM [cytotoxic, single point]",
COc1cc(NC(=O)c2cc3cccc(OC)c3o2)cc(C(=O)Nc2cccc(C(F)(F)F)c2)c1,"inconclusive: 3.66 µM [cytotoxic, full curve, poor fit]",
O=C(NCCC1=CCCCC1)C1CCN(c2nc3ccccc3o2)CC1,"inconclusive: 2.31 µM [cytotoxic, partial curve, poor fit]",
CC(=O)n1cc(C(C[N+](=O)[O-])SCCN)c2ccccc21 (configuration not stated),"inconclusive: 29.1 µM [cytotoxic, single point]",
